Laboratory results published in paper PMC4383634.
These are yes or no findings as the source states them, for the method shown. For part of these data: A result given as binding can be weak or reduced; the word gives no strength. Where a sequence is shown, tags or fusion partners need not be part of it. One block for each binder: values may come before it.

Amino acid sequences for entries named in this document (tags omitted). A change or cut given only in a name is not applied to a line headed by its entry.
UniProt P12254: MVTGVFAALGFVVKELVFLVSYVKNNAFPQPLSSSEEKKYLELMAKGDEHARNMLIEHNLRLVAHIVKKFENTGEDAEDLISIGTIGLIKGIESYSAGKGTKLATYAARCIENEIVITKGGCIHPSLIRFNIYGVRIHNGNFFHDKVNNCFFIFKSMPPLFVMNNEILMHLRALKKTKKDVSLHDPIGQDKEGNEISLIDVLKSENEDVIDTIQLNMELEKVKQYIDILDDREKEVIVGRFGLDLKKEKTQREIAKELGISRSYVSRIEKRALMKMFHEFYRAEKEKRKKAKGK
UniProt P06222: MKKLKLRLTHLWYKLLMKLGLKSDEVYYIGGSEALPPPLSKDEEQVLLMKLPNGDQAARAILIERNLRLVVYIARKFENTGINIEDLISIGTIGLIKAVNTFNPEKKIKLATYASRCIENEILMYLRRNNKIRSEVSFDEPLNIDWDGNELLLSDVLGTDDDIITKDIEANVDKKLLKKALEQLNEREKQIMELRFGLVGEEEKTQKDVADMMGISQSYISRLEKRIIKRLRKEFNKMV

Key:
[1] = molecular target: GAL4 DNA binding domain-σ^(K E93N) fusion (B. subtilis) (UniProt P12254); assay: two-hybrid; GAL4-based yeast two-hybrid; CsfB fused to the activation domain, sigma factors or fragments to the DNA binding domain; lacZ reporter, colony lift assay and β-galactosidase assay in liquid medium
[2] = molecular target: GAL4 DNA binding domain-σ^K fusion (B. subtilis) (UniProt P12254); assay: as above
[3] = molecular target: GST-σ^(E N100E) (B. subtilis) (UniProt P06222); assay: pull-down; GST or GST-σ^E fusions on glutathione beads incubated with CsfB-Strep II (100 nM); after washing, eluted proteins immunoblotted with anti-Strep II tag antibody; both purified

- binding [1]: binds
- binding [2]: no binding
B1: GAL4 activation domain-CsfB fusion (protein, UniProt P37534 1-64)
chain: MDETVKLNHTCVICDQEKNRGIHLYTKFICLDCERKVISTSTSDPDYAFYVKKLKSIHTPPLYS

- binding [3]: no binding (tested: 100 nM)
B2: CsfB-StrepII-tagged protein (protein, UniProt P37534 1-64)
chain: B1 chain
